No constants are given. Whether binding was seen depends on the method and setting. In cells and extracts the contact can be indirect. Here binding means that the protein was enriched with, or labelled near, the bait; the list need not be complete. Tags and fused reporters may be left off the sequences shown.
T1: GST-MLLT11 (mouse) (UniProt P97783)
T1 sequence: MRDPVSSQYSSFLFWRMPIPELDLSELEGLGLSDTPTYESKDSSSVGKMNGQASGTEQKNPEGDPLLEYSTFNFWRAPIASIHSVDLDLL

Sequences of proteins named here, by UniProt entry; tags and fusion partners are left off. Residues count along the entry.
UniProt Q99104: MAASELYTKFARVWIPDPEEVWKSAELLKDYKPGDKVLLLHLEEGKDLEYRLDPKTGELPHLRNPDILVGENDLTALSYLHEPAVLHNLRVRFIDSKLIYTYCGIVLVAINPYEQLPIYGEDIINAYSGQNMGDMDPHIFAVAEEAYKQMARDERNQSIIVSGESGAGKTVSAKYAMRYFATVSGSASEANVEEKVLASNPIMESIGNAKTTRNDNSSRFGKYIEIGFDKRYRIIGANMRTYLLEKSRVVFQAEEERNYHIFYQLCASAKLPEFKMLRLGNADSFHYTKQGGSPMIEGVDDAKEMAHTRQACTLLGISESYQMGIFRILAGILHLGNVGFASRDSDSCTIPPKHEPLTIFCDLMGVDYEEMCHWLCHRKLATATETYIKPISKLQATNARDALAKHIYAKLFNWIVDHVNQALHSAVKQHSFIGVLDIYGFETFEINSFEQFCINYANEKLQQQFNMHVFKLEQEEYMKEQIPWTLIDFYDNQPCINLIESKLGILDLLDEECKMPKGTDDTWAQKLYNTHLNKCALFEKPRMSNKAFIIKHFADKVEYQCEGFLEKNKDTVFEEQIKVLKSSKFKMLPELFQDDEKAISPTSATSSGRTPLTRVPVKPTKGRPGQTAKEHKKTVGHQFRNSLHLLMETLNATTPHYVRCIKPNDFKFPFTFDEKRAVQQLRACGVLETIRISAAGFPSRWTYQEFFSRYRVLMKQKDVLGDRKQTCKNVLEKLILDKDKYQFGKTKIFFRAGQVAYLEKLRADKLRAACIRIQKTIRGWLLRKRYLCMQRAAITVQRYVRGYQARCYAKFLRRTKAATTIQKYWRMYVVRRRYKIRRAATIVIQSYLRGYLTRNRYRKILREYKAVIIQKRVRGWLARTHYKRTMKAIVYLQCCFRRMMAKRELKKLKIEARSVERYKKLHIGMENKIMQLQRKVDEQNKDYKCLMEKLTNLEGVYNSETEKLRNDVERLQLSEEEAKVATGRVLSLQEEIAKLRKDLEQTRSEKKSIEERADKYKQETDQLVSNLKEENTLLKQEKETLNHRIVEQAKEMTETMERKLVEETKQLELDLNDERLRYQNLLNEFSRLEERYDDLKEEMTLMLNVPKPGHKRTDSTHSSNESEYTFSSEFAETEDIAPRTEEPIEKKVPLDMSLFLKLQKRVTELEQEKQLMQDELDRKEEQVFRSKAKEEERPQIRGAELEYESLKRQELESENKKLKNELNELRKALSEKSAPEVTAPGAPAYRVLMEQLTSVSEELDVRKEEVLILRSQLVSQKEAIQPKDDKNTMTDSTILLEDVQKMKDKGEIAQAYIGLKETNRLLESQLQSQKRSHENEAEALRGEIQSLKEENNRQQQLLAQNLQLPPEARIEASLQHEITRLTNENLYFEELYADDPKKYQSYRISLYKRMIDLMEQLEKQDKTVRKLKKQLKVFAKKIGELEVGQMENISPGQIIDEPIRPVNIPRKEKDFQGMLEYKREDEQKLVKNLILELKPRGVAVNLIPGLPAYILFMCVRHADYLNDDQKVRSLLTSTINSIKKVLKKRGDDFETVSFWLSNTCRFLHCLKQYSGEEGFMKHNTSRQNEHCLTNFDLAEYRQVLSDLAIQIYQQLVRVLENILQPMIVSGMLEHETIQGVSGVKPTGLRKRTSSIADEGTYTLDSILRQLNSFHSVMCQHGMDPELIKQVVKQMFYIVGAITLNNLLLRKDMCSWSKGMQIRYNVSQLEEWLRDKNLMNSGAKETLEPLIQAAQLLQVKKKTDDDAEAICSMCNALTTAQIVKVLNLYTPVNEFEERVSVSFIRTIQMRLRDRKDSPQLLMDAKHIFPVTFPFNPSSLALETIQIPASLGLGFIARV
UniProt P68372: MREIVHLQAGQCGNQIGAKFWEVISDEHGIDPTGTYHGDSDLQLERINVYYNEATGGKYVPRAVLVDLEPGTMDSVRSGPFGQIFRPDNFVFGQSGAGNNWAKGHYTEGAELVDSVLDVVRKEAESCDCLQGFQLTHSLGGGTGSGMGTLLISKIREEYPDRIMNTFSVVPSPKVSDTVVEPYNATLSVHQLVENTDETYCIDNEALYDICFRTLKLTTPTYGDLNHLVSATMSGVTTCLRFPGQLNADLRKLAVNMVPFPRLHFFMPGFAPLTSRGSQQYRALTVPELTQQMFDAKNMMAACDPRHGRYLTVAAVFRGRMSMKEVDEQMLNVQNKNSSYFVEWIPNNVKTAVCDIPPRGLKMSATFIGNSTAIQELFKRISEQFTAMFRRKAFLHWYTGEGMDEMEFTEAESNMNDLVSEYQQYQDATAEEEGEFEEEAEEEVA
UniProt P62631: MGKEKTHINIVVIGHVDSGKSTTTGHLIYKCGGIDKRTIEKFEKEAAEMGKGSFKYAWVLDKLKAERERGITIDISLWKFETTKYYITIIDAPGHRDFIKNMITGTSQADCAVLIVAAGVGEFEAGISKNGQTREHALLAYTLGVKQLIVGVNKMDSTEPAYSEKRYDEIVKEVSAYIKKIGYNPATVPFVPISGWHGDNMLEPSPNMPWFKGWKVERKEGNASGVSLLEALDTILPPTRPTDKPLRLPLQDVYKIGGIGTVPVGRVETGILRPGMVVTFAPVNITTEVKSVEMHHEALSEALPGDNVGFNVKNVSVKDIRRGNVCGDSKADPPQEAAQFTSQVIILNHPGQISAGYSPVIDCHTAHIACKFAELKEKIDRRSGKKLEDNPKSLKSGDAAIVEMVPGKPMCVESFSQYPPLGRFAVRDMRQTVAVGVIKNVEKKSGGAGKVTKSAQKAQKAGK
UniProt P20029, residues 20-655: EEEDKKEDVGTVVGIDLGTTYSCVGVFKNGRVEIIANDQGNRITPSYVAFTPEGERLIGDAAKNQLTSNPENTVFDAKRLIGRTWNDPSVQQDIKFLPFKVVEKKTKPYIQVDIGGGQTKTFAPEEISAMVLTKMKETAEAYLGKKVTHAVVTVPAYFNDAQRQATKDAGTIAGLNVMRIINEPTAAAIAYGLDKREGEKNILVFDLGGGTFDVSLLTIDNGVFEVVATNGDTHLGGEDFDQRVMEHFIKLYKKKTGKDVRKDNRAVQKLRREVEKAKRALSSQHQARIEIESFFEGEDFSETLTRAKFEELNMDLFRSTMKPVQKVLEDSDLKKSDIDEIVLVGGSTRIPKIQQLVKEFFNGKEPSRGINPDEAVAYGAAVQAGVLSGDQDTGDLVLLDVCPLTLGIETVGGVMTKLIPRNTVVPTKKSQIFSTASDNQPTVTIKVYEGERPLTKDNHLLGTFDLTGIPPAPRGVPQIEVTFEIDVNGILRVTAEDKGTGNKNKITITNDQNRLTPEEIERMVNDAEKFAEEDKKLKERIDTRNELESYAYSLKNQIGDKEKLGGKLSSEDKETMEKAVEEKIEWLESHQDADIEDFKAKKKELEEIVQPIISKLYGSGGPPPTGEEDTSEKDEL
UniProt P99024: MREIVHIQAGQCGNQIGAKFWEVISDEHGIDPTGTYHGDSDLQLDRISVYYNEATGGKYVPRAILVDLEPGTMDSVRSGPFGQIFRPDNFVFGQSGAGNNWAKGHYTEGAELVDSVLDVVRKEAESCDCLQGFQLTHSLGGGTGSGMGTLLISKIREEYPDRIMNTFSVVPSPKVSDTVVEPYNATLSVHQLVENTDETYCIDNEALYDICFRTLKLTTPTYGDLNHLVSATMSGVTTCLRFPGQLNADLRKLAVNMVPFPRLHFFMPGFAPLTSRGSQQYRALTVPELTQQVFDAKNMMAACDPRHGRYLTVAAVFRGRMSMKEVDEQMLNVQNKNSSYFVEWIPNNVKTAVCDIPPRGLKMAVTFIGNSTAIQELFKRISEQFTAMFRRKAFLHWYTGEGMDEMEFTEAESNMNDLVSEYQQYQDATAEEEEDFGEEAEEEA
UniProt Q3THK7: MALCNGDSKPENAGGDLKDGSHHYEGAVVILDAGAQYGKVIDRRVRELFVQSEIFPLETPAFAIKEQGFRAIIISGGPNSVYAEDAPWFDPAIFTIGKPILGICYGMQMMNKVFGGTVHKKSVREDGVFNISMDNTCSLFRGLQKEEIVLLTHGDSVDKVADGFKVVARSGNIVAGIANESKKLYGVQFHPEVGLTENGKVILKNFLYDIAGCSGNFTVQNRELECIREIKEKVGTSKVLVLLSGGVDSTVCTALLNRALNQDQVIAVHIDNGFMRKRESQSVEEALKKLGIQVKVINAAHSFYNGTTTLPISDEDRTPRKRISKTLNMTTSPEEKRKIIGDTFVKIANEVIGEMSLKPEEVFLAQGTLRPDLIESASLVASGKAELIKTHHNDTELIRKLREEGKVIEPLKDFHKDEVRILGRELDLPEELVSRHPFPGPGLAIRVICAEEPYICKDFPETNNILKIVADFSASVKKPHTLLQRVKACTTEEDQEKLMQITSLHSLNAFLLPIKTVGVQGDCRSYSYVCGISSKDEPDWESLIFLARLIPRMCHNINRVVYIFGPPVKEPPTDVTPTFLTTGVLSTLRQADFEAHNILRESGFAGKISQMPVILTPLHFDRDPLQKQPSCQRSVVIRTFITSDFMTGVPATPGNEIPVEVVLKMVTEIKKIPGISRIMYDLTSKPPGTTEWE
UniProt Q61879: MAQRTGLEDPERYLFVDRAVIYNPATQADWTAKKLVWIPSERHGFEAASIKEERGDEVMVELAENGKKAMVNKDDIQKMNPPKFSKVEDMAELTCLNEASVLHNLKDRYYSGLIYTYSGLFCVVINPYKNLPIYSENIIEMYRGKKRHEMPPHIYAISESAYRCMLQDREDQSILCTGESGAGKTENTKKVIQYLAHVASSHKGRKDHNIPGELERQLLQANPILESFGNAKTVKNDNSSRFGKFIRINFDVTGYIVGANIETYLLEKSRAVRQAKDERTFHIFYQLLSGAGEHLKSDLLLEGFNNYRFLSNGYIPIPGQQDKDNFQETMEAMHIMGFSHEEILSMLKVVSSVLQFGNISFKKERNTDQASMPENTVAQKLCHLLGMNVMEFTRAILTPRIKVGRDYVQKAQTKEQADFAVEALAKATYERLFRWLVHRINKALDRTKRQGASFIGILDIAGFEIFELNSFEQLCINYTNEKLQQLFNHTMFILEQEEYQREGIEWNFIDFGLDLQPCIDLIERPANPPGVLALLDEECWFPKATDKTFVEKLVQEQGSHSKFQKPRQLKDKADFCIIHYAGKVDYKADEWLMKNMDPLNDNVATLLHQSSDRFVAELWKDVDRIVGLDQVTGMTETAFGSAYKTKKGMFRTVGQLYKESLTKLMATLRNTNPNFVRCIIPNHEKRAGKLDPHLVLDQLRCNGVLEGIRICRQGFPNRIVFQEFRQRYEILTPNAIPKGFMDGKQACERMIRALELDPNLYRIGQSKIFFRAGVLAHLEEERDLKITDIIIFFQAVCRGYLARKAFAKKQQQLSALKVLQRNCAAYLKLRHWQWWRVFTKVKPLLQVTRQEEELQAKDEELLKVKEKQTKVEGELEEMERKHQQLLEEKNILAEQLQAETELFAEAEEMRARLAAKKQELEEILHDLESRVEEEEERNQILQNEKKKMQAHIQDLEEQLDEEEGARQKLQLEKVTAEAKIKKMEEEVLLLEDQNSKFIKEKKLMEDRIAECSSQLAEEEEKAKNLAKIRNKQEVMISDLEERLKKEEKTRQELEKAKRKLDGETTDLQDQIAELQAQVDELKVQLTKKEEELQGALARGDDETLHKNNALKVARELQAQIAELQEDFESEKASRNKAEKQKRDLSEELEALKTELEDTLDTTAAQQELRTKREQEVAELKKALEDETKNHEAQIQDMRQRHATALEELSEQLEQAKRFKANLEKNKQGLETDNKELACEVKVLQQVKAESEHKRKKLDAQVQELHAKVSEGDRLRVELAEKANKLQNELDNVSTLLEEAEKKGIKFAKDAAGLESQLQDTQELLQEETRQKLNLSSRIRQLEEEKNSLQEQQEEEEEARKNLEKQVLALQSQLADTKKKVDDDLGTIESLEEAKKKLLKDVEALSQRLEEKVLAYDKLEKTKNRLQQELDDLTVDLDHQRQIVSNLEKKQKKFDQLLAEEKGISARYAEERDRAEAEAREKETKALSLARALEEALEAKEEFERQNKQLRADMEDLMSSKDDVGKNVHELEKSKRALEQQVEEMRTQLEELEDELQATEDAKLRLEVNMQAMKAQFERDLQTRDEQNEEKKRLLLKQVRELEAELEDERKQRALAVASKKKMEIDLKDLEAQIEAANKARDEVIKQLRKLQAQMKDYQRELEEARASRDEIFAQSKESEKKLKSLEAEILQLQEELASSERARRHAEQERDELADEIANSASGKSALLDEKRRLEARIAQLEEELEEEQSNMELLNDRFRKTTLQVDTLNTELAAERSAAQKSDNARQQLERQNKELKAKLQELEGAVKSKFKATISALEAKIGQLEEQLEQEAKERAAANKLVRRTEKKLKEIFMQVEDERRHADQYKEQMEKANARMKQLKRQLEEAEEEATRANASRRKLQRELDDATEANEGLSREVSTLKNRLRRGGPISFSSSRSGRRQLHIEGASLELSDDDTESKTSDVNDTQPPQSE


Molecular target: T1, GST-MLLT11 (mouse)
Assay: affinity purification with mass spectrometry; GST-MLLT11 (6 µg) immobilized on Glutathione Sepharose 4B beads, incubated overnight at 4°C with embryonic mouse whole-brain lysate in NP-40 lysis buffer (50 mM Tris pH 8.0, 150 mM NaCl, 1% NP-40); bands cut from a Coomassie-stained SDS-PAGE gel for mass spectrometry; GST beads as control; only the target purified

Row | Molecule | binding
1 | Unconventional myosin-Va (Myo5a) (from UniProt Q99104 1-1853) | binds
2 | Tubulin β-4B chain (Tubb4b) (from UniProt P68372 1-445) | binds
3 | Elongation factor 1-α2 (Eef1a2) (from UniProt P62631 1-463) | binds
4 | Stress-70 protein, mitochondrial (Hspa9) (from UniProt P38647 47-679) | binds
5 | Isoform Tau-B of Microtubule-associated protein tau (Mapt) (from UniProt P10637-3 1-364) | binds
6 | Endoplasmic reticulum chaperone BiP (Hspa5) (from UniProt P20029 20-655) | binds
7 | Inorganic pyrophosphatase (Ppa1) (enzyme, UniProt Q9D819 1-289) MSGFSSEERAAPFTLEYRVFLKNEKGQYISPFHDVPIYADKDVFHMVVEVPRWSNAKMEIATKDPLNPIKQDVKKGKLRYVANLFPYKGYIWNYGAIPQTWEDPGHSDKHTGCCGDNDPIDVCEIGSKVCARGEIIRVKVLGILAMIDEGETDWKVIAINVDDPDAANYKDISDVERLKPGYLEATVDWFRRYKVPDGKPENEFAFNAEFKNKDFAVDIIKSTHDYWKALVTKKTDGKGISCMNTTVSESPFKCDPDAAKAIVDALPPPCESACSLPTDVDKWFHQQKN | binds
8 | Tubulin α chain-like 3 (Tubal3) (protein, UniProt Q3UX10 1-446) MRECLSIHIGQAGVQIGDACWELYCLEHGIQPDGFILDHQHDNLENPKVEHMNASLDTFFHETRAGKHVPRTLFMDLEPTVIDGIRVGRYHSLFHPEQLVNGKEDAANTYARGRYSVGSEVIELVLERIRKLAEQCSGLQGFLIYRSFGGGTGSGFTSLLMERLSVEYCKKIKLEFSVYPSPRISTAVVEPYNAILTTHSTIEYSDCAFMVDNEALYDICQHKLGIERPSYASINRLIAQVSSSITASLRFEGPLNVDLIEFQTNLVPYPRIHFPITALAPIISAEKAYQEQLSVSDVTASCFEVSNQLVKCDPRLGKYMACCLLYRGDVVPKDVNEAIAAMKSRTSVQFVDWCPTGFKVGINYQPPAVVPGGDLARVQRAVCMLSNTTAIVEAWARLDHKFDLMYAKKAFLHWYITEGMELGEFVEAREDLAALEKDYEEVGLSF | binds
9 | D-β-hydroxybutyrate dehydrogenase, mitochondrial (Bdh1) (enzyme, UniProt Q80XN0 47-343) ASQADAASGKAILITGCDSGFGFSLAKHLHSKGFLVFAGCLMKDKGDAGVKELDSLKSDRLRTIQLNVCNSEEVEKAVETIRSGLKDPEKGMWGLVNNAGISTFGEVEFTSMETYKEVAEVNLWGTVRTTKSFLPLLRRAKGRVVNISSMLGRMANPARSPYCITKFGIEAFSDCLRYEMHPLGVKVSVVEPGNFIAATSLYSPERIQAIAKKMWDDLPEVVRKDYGRKYFDEKIAKMETYCNSGSTDTSSVINAVTHALTAATPYTRYHPMDYYWWLRMQIMTHFPGAISDKIYIH | binds

The next lines start with the values.

Row | binding | Molecule
10 | binds | Tubulin β-5 chain (Tubb5) (from UniProt P99024 1-444)
11 | binds | Tubulin β-4A chain (Tubb4a) (from UniProt Q9D6F9 1-444)
12 | binds | Tubulin β-6 chain (Tubb6) (from UniProt Q922F4 1-447)
13 | binds | Tubulin β-1 chain (Tubb1) (from UniProt A2AQ07 1-451)
14 | binds | GMP synthase [glutamine-hydrolyzing] (Gmps) (from UniProt Q3THK7 1-693) (enzyme)
15 | binds | Myosin-10 (Myh10) (from UniProt Q61879 1-1976)
16 | binds | Carbonyl reductase [NADPH] 1 (Cbr1) (enzyme, UniProt P48758 1-277) MSSSRPVALVTGANKGIGFAITRDLCRKFSGDVVLAARDEERGQTAVQKLQAEGLSPRFHQLDIDNPQSIRALRDFLLKEYGGLDVLVNNAGIAFKVNDDTPFHIQAEVTMKTNFFGTRDVCKELLPLIKPQGRVVNVSSMVSLRALKNCRLELQQKFRSETITEEELVGLMNKFVEDTKKGVHAEEGWPNSAYGVTKIGVTVLSRILARKLNEQRRGDKILLNACCPGWVRTDMAGPKATKSPEEGAETPVYLALLPPDAEGPHGQFVQDKKVEPW

From article PMC9097781
